Reference: PubChem BioAssay AID504467 (National Center for Advancing Translational Sciences (NCATS), 2011)
Among all 330,000 compounds or so, about 7,700 (2.3%) were called active. The inconclusive results got no clear call from the source; some entries with a clear call stand among them for comparison. Calls follow the shape of the dose curve; as a rule, active = well fitted inhibition curve with a large enough effect; inconclusive = small, poorly fitted or top-dose-only effect, or effect the other way; inactive = flat fitted curve, though single readings scatter. Potencies beside an inconclusive call are fits to weak or partial responses and may not hold up.
% is scaled to controls: 0 for no effect and ±100 for the full control effect; potency is read from the fitted curve at half-maximal effect.

Test: qHTS screen for small molecules that inhibit ELG1-dependent DNA repair in human embryonic kidney (HEK293T) cells expressing luciferase-tagged ELG1; also: nearly all actives have a fitted effect of over 55% in size
Conditions: HEK293T ELG1-luciferase reporter, luminescence, 16 h, DNA damage induced by 5-fluorouridine; activity change, negative = inhibition: at 46.1 µM (top of the series)
Method in brief: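 In this reporter screen, reduction of luminescence relative to DMSO vehicle indicated activity. Compounds and 5-fluorouridine were added together to 2,000 cells per well, incubated for 16 hr at 37 °C, then developed with ONE-Glo.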
For `Cc1cc(C)nc(SCCC(=O)Nc2ccccc2Cl)n1`, the “activity change, negative = inhibition” value was inactive: -10.5%.
With `O=C1C2CC=CCC2C(=O)N1Cc1ccccc1Cl` (configuration not stated) the “activity change, negative = inhibition” value was inactive: -3.4%.
For `CC1CC1c1ccc(/C=C(\C#N)C(=O)Nc2ccc(Cl)cc2)o1` (configuration not stated), the Potency was inconclusive: 2.59 µM [activator, full curve].
For `CC1CC(C)CN(CCCNC(=O)c2ccc3nc(N4CCCCC4)sc3c2)C1` (configuration not stated), the Potency was inconclusive: 1.3 µM [activator, full curve].
With `COc1ccccc1/C=C/C(=O)c1ccccc1` the Potency was inconclusive: 9.2 µM [activator, partial curve].
With `CCOc1cc(/C=N/n2c(C)nnc2C)ccc1O` the Potency was inconclusive: 23.1 µM [activator, partial curve].
For `O=C(O)c1ccc(-c2nnc(-c3cccc(Br)c3)o2)cc1`, the Potency was inconclusive: 3.26 µM [activator, full curve].
In the case of `Cc1ccc(/C(O)=C2/C(=O)C(=O)N(c3ccccn3)C2c2ccc(F)cc2)cc1` (configuration not stated), the Potency is reported as inconclusive: 1.3 µM [activator, full curve, poor fit].
With `Cn1c(=O)cc(SCC(=O)NCc2cccnc2)c2ccccc21` the Potency was inconclusive: 18.4 µM [activator, single point].
For `O=C(CSc1ncnc2scc(-c3ccccc3)c12)Nc1ccc(C(=O)O)cc1`, the “activity change, negative = inhibition” value was inactive: 23.9%.
With `COC(=O)c1sc(N)c(C(=O)OC)c1COC(=O)C12CC3CC(CC(O)(C3)C1)C2` the Potency was inconclusive: 2.91 µM [inhibitor, full curve].
With `CC(=O)N1CC(c2ccccc2)C(c2ccc(Cl)cc2)=N1` (configuration not stated) the “activity change, negative = inhibition” value was inactive: -3.37%.
With `O=C(Nc1ccccc1)c1cc2ccccc2o1` the Potency was inconclusive: 1.84 µM [activator, full curve].
For `CCc1ccc(NC(=O)Nc2cccc(OC)c2)cc1`, the Potency was inconclusive: 9.2 µM [activator, partial curve].
For `C#CCn1c(=NC(=O)c2ccccc2[N+](=O)[O-])sc2cc(S(C)(=O)=O)ccc21`, the Potency was inconclusive: 29.1 µM [activator, single point].
For `CC(=O)c1sc(NC(=O)c2cccnc2Cl)nc1C`, the “activity change, negative = inhibition” value was inactive: 21.2%.
With `O=C1c2cccc3c([N+](=O)[O-])c(O)cc(c23)C(=O)N1Nc1ccccc1` the “activity change, negative = inhibition” value was inactive: -26.2%.
With `COc1ccc(CNC(=O)C[C@H]2C(=O)N(CCc3ccccc3)C[C@@H]2Cc2ccccc2)cc1` the Potency was inconclusive: 18.3 µM [inhibitor, single point].
In the case of `CCCCCOC(=O)c1ccc(NC(=O)c2cccc(NC(=O)c3ccccc3C(=O)O)c2)cc1`, the “activity change, negative = inhibition” value is reported as inactive: -1.71%.
For `COc1cccc(N/C(SCc2ccccc2C)=C(/C#N)C(=O)NCc2cccs2)c1`, the “activity change, negative = inhibition” value was inactive: -26.5%.
In the case of `COc1ccc(CNCc2cccc3ccccc23)cc1`, the “activity change, negative = inhibition” value is reported as inactive: -5.1%.
For `c1ccc(-c2ccc(-c3nc(-c4cccnc4)no3)cc2)cc1`, the Potency was inconclusive: 2.31 µM [activator, full curve].
In the case of `O=C(COC(=O)c1ccccc1C(=O)c1ccc(Cl)c([N+](=O)[O-])c1)NC1CCCCCC1`, the Potency is reported as inconclusive: 29.1 µM [inhibitor, single point].
In the case of `CCCCN1C(=O)C2(NNc3ccccc3O2)c2ccccc21` (configuration not stated), the Potency is reported as inconclusive: 23.1 µM [activator, single point].
For `O=C(NC(C(=O)c1ccccc1)N1CCCCC1)c1ccccc1` (configuration not stated), the Potency was inconclusive: 10.3 µM [activator, single point].
In the case of `Cc1c(-c2cc(Br)ccc2O)nc2cc3c(cc2c1C)OCO3`, the Potency is reported as inconclusive: 29.1 µM [activator, single point].
For `COc1cccc(NC(=O)CN(C)C(=O)c2cc(-c3cccc(Br)c3)nc3ccccc23)c1`, the Potency was inconclusive: 25.9 µM [inhibitor, single point].
With `CC(=O)Nc1cccc(NC(=O)c2cc(-c3cccnc3)nc3ccc(Cl)cc23)c1` the Potency was active: 20.6 µM.
In the case of `CCOc1ccc(NC(=S)NCCCN2CCOCC2)cc1`, the “activity change, negative = inhibition” value is reported as inactive: 19.9%.
With `Cc1cnc(C(=O)Nc2ccc(C(C)C)cc2)cn1` the Potency was inconclusive: 2.31 µM [activator, full curve].
For `CCOC(=O)C(=Cc1ccc(-n2cncn2)cc1)C(=O)OCC`, the Potency was active: 18.3 µM.
With `CCN1CCN(C(CNC(=O)c2ccc3c(c2)OCO3)c2cccnc2)CC1` (configuration not stated) the Potency was inconclusive: 14.6 µM [activator, partial curve].
In the case of `CC(=O)c1cccc(NC(=O)c2cc(=O)[nH]c3ccccc23)c1`, the “activity change, negative = inhibition” value is reported as inactive: -5.33%.
For `O=C(NCCc1nc2ccccc2[nH]1)c1ccc(F)cc1`, the “activity change, negative = inhibition” value was inactive: 12%.
In the case of `Cc1ccc(N2CCN(C(=S)c3ccc(N(C)C)cc3)CC2)cc1`, the Potency is reported as inconclusive: 25.9 µM [activator, partial curve, poor fit].
With `Cc1cc2cc(CN(CCCO)S(=O)(=O)c3cccc4nsnc34)c(=O)[nH]c2cc1C` the Potency was inconclusive: 23.1 µM [inhibitor, single point].
With `Cc1cc(C)cc(NC(=O)CN2CCN(c3ncccn3)CC2)c1` the Potency was inconclusive: 1.16 µM [activator, single point].
In the case of `O=C(COc1ccc(Br)cc1)Nc1ccc(NC(=O)c2ccccc2)cc1`, the Potency is reported as inconclusive: 11.6 µM [activator, partial curve].
For `O=C(c1cccnc1Cl)N(Cc1ccccc1)Cc1ccccc1`, the Potency was inconclusive: 18.3 µM [inhibitor, single point].
In the case of `O=C(NC(=S)NCc1ccccc1)c1ccccc1Br`, the Potency is reported as inconclusive: 35.5 µM [activator, single point].
For `COc1ccccc1C1=NNC(=Nc2cccc(S(=O)(=O)N(C)C)c2)SC1`, the Potency was inconclusive: 2.59 µM [inhibitor, full curve, poor fit].
With `N#Cc1cc(S(=O)(=O)c2ccccc2)c(N)[nH]c1=O` the Potency was inconclusive: 20.6 µM [inhibitor, partial curve, poor fit].
With `Cc1ccc(N2CCN(CC(O)COc3cccc(C)c3)CC2)cc1` (configuration not stated) the “activity change, negative = inhibition” value was inactive: -2.81%.
With `Cn1ncc(Br)c1NC(=O)c1ccco1` the Potency was inconclusive: 23.1 µM [activator, partial curve, poor fit].
In the case of `COc1ccc(/C(C)=N/OCC(=O)Nc2nc3ccccc3s2)cc1OC`, the Potency is reported as inconclusive: 29.1 µM [inhibitor, single point].
In the case of `Cn1cc(-c2nnc(-c3ccccc3)o2)c2ccccc21`, the Potency is reported as inconclusive: 1.3 µM [activator, full curve].
For `O=C(Nc1ccc2c(c1)CCC2)c1ccc(Br)s1`, the Potency was inconclusive: 2.31 µM [activator, partial curve].
For `O=C(Nc1ccc(CN2CCS(=O)(=O)CC2)cc1)c1ccc(C(F)(F)F)cc1`, the “activity change, negative = inhibition” value was inactive: -10.1%.
For `O=C(CN(Cc1cccs1)C(=O)CSc1nnc(COc2ccccc2)o1)NC1CCCC1`, the Potency was inconclusive: 4.61 µM [inhibitor, single point].
In the case of `CCOC(=O)CNS(=O)(=O)c1cc(-c2nnc(Nc3ccc4c(c3)OCO4)c3ccccc23)ccc1C`, the Potency is reported as inconclusive: 25.9 µM [inhibitor, single point].
For `Clc1ccc(-c2cn3nc4c(nc3n2)CCCC4)cc1`, the Potency was inconclusive: 0.326 µM [activator, full curve].
For `CCCNC(=O)c1cc(-c2ccco2)on1`, the Potency was inconclusive: 14.6 µM [activator, partial curve].
In the case of `Cc1cc(Cl)ccc1OCc1nc(-c2ccncc2)no1`, the Potency is reported as inconclusive: 16.4 µM [activator, partial curve].
With `COc1ccc(NC(=O)c2ccc(-c3csc(C)n3)cc2)cc1` the Potency was inconclusive: 3.98 µM [activator, partial curve].
With `CCCc1cc(=O)oc2cc(OCc3cccc(OC)c3)c(Cl)cc12` the Potency was inconclusive: 16.4 µM [activator, partial curve, poor fit].
With `Cc1ccc(C(=O)OCC(=O)NCCC2=CCCCC2)s1` the Potency was inconclusive: 16.4 µM [activator, single point].
For `COc1ccc(CCNS(=O)(=O)c2ccc3oc(C(=O)O)c(C)c3c2)cc1OC`, the “activity change, negative = inhibition” value was inactive: 6.22%.
With `Cc1nc(SCC(=O)c2cc3ccccc3oc2=O)c(C#N)c(-c2ccccc2)c1C(=O)Nc1ccccc1` the Potency was inconclusive: 20.6 µM [inhibitor, single point].
In the case of `CC(C)CNc1nnnc2c1sc1nc(N3CCOCC3)c3c(c12)CC(C)(C)SC3`, the Potency is reported as active: 4.11 µM.
With `CCOc1ccc(NC(=O)C2CCCN(S(=O)(=O)c3cccc4nsnc34)C2)cc1` (configuration not stated) the Potency was active: 23.1 µM.
For `O=C(COc1ncnc2ccccc12)NC1CCCCC1`, the “activity change, negative = inhibition” value was inactive: 0%.
In the case of `CN1CCN(c2ccc(Cl)cc2NC(=O)c2cc(=O)[nH]c3ccccc23)CC1`, the “activity change, negative = inhibition” value is reported as inactive: 20.7%.
With `CCCCn1c(N)c(N(CCOC)C(=O)c2ccc(-c3ccc(C(C)=O)cc3)o2)c(=O)[nH]c1=O` the Potency was inconclusive: 7.3 µM [activator, single point].
With `CC1=C(C(=O)N2CCCC(N3CCN(c4ccccc4C)CC3)C2)OCCO1` (configuration not stated) the “activity change, negative = inhibition” value was inactive: 1.01%.
With `COc1ccc(-c2nnc(SCC(=O)NC(C)C)n2CC2CCCO2)cc1OC` (configuration not stated) the Potency was inconclusive: 35.5 µM [inhibitor, single point].
For `CC(C)NC(=O)CSc1nnc(-c2ccc(F)cc2)c2ccccc12`, the “activity change, negative = inhibition” value was inactive: -2.02%.
For `COc1ccccc1/C=N/NC(=O)c1cc2c(OC)c(OC)ccc2[nH]1`, the “activity change, negative = inhibition” value was inactive: -12.9%.
For `CN(C)S(=O)(=O)c1cccc(NC(=O)CCc2nc3sc4c(c3c(=O)[nH]2)CCCC4)c1`, the Potency was active: 11.2 µM.
With `CCOC(=O)c1cnc(SCC(=O)Nc2ccccc2C(=O)OC)nc1N` the Potency was inconclusive: 20.6 µM [inhibitor, single point].
With `COC(=O)c1cc2c(ccn2-c2ccc(F)cc2)n1Cc1cccc(OC)c1` the “activity change, negative = inhibition” value was inactive: -12.7%.
With `CSc1nc2c(c(=O)n1C)SC(C)C2` (configuration not stated) the Potency was inconclusive: 20.6 µM [activator, partial curve, poor fit].
For `CC(=O)Oc1ccccc1-c1nc(C)nc(N(C)C(C)=O)n1`, the Potency was inconclusive: 25.9 µM [activator, single point].
